These are yes or no findings as the source states them, for the method shown. For part of these data: In cells and extracts the contact can be indirect. Some entries that bind do so weakly or less than the wild type. Sequences can lack the tags named with a protein.
Columns and labels:
(FLAG)3-Oct4 = (FLAG)3-Oct4 (UniProt P20263); assay: fluorescence correlation spectroscopy
(FLAG)3-Sox2 [1] = molecular target: (FLAG)3-Sox2 (UniProt P48432); assay: fluorescence correlation spectroscopy
GFP-Nanog = GFP-Nanog (UniProt Q80Z64); assay: fluorescence correlation spectroscopy
(FLAG)3-Nanog = molecular target: T1, (FLAG)3-Nanog (UniProt Q80Z64); assay: co-IP
T1 sequence: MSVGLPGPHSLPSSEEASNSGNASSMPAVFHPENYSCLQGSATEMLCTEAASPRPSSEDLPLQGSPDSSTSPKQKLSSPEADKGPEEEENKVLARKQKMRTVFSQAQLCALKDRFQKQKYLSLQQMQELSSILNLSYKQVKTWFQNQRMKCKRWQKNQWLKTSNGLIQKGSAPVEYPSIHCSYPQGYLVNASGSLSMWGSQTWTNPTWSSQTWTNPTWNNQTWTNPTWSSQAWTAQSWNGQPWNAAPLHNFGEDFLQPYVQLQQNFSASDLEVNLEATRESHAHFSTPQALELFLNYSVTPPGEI

By UniProt entry, the sequences of proteins in these tests, tags left out.
UniProt P20263: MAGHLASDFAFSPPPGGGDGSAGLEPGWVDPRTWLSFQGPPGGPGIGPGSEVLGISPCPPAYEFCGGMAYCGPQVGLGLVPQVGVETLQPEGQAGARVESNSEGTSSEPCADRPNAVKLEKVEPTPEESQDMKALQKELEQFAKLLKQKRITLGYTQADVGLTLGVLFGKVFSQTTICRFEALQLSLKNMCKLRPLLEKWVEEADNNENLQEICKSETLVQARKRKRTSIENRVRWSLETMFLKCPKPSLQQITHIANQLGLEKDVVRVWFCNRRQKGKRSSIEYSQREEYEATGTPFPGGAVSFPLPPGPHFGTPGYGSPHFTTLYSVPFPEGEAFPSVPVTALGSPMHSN
UniProt P48432: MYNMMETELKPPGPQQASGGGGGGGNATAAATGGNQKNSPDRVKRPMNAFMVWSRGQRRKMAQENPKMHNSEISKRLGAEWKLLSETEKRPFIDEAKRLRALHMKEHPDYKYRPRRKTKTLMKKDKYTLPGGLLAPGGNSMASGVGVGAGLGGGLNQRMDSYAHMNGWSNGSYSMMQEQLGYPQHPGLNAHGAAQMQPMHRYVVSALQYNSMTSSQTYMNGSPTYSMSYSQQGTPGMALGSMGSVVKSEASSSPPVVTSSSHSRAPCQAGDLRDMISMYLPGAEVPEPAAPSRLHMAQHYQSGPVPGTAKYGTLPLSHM

(FLAG)3-Sox2 [2] = molecular target: (FLAG)3-Sox2 (UniProt P48432); assay: co-IP

Measured: binding

B1: GFP-Nanog (protein, UniProt Q80Z64 1-305)
chain: T1 sequence
binds: all assays above

B2: mCherry-Nanog (protein, UniProt Q80Z64 1-305)
chain: T1 sequence
binds: (FLAG)3-Nanog

Source: article doi:10.1101/2020.06.24.169185
